Results: publication PMC12083247

How the values were obtained:
[1] = biological target: CAPN2[C105S]-3xFlag-6xHis in complex with CAPNS1(86–268); assay: pull-down; substrate trapping: 3xFlag baits (6 μM) on anti-Flag agarose; HCT116 cytosol with 2 mM CaCl2 and E64, 2 h at 4°C; washes TBS + 1 mM CaCl2 + 0.01% Tween-20; immunoblot of elutions; only the target purified
[2] = biological target: CAPN2[C105S]-3xFlag-6xHis in complex with CAPNS1(86–268); assay: pull-down; same substrate trapping; bound proteins eluted with TBS + 5 mM EGTA, then SDS (Laemmli) elution; immunoblot; only the target purified

B1: annexin A6 (protein, UniProt P08133 1-673)
chain: MAKPAQGAKYRGSIHDFPGFDPNQDAEALYTAMKGFGSDKEAILDIITSRSNRQRQEVCQSYKSLYGKDLIADLKYELTGKFERLIVGLMRPPAYCDAKEIKDAISGIGTDEKCLIEILASRTNEQMHQLVAAYKDAYERDLEADIIGDTSGHFQKMLVVLLQGTREEDDVVSEDLVQQDVQDLYEAGELKWGTDEAQFIYILGNRSKQHLRLVFDEYLKTTGKPIEASIRGELSGDFEKLMLAVVKCIRSTPEYFAERLFKAMKGLGTRDNTLIRIMVSRSELDMLDIREIFRTKYEKSLYSMIKNDTSGEYKKTLLKLSGGDDDAAGQFFPEAAQVAYQMWELSAVARVELKGTVRPANDFNPDADAKALRKAMKGLGTDEDTIIDIITHRSNVQRQQIRQTFKSHFGRDLMTDLKSEISGDLARLILGLMMPPAHYDAKQLKKAMEGAGTDEKALIEILATRTNAEIRAINEAYKEDYHKSLEDALSSDTSGHFRRILISLATGHREEGGENLDQAREDAQVAAEILEIADTPSGDKTSLETRFMTILCTRSYPHLRRVFQEFIKMTNYDVEHTIKKEMSGDVRDAFVAIVQSVKNKPLFFADKLYKSMKGAGTDEKTLTRIMVSRSEIDLLNIRREFIEKYDKSLHQAIEGDTSGDFLKALLALCGGED
- binding [1]: binds
- binding [2]: no binding (only with 5 mM EGTA)

Results are given in words; binding and its absence hold for the method and conditions named. In cells and extracts the contact can be indirect. For some assays here: Binding can be weak; no strength is given.
